Values quoted from earlier work, collected in patent EP2325172A1 (Laboratorios del. Dr. Esteve, S.A., priority 2009, dated 2011).
Converted amounts (≈) assume the structure as drawn.

water solubility: 7 µg/mL (≈ 18.4 µM)
SMILES: Cc1ccc(-c2cc(C(F)(F)F)nn2-c2ccc(S(N)(=O)=O)cc2)cc1 [celecoxib, 4-[5-(4-methylphenyl)-3-(trifluoromethyl)pyrazol-1-yl]benzenesulfonamide]
